Measured values: PMC4368717
No constants are given. Whether binding was seen depends on the method and setting.

Amino acid sequences for entries named in this document (tags omitted). Residues count along the entry.
UniProt P98088, residues 28-5654: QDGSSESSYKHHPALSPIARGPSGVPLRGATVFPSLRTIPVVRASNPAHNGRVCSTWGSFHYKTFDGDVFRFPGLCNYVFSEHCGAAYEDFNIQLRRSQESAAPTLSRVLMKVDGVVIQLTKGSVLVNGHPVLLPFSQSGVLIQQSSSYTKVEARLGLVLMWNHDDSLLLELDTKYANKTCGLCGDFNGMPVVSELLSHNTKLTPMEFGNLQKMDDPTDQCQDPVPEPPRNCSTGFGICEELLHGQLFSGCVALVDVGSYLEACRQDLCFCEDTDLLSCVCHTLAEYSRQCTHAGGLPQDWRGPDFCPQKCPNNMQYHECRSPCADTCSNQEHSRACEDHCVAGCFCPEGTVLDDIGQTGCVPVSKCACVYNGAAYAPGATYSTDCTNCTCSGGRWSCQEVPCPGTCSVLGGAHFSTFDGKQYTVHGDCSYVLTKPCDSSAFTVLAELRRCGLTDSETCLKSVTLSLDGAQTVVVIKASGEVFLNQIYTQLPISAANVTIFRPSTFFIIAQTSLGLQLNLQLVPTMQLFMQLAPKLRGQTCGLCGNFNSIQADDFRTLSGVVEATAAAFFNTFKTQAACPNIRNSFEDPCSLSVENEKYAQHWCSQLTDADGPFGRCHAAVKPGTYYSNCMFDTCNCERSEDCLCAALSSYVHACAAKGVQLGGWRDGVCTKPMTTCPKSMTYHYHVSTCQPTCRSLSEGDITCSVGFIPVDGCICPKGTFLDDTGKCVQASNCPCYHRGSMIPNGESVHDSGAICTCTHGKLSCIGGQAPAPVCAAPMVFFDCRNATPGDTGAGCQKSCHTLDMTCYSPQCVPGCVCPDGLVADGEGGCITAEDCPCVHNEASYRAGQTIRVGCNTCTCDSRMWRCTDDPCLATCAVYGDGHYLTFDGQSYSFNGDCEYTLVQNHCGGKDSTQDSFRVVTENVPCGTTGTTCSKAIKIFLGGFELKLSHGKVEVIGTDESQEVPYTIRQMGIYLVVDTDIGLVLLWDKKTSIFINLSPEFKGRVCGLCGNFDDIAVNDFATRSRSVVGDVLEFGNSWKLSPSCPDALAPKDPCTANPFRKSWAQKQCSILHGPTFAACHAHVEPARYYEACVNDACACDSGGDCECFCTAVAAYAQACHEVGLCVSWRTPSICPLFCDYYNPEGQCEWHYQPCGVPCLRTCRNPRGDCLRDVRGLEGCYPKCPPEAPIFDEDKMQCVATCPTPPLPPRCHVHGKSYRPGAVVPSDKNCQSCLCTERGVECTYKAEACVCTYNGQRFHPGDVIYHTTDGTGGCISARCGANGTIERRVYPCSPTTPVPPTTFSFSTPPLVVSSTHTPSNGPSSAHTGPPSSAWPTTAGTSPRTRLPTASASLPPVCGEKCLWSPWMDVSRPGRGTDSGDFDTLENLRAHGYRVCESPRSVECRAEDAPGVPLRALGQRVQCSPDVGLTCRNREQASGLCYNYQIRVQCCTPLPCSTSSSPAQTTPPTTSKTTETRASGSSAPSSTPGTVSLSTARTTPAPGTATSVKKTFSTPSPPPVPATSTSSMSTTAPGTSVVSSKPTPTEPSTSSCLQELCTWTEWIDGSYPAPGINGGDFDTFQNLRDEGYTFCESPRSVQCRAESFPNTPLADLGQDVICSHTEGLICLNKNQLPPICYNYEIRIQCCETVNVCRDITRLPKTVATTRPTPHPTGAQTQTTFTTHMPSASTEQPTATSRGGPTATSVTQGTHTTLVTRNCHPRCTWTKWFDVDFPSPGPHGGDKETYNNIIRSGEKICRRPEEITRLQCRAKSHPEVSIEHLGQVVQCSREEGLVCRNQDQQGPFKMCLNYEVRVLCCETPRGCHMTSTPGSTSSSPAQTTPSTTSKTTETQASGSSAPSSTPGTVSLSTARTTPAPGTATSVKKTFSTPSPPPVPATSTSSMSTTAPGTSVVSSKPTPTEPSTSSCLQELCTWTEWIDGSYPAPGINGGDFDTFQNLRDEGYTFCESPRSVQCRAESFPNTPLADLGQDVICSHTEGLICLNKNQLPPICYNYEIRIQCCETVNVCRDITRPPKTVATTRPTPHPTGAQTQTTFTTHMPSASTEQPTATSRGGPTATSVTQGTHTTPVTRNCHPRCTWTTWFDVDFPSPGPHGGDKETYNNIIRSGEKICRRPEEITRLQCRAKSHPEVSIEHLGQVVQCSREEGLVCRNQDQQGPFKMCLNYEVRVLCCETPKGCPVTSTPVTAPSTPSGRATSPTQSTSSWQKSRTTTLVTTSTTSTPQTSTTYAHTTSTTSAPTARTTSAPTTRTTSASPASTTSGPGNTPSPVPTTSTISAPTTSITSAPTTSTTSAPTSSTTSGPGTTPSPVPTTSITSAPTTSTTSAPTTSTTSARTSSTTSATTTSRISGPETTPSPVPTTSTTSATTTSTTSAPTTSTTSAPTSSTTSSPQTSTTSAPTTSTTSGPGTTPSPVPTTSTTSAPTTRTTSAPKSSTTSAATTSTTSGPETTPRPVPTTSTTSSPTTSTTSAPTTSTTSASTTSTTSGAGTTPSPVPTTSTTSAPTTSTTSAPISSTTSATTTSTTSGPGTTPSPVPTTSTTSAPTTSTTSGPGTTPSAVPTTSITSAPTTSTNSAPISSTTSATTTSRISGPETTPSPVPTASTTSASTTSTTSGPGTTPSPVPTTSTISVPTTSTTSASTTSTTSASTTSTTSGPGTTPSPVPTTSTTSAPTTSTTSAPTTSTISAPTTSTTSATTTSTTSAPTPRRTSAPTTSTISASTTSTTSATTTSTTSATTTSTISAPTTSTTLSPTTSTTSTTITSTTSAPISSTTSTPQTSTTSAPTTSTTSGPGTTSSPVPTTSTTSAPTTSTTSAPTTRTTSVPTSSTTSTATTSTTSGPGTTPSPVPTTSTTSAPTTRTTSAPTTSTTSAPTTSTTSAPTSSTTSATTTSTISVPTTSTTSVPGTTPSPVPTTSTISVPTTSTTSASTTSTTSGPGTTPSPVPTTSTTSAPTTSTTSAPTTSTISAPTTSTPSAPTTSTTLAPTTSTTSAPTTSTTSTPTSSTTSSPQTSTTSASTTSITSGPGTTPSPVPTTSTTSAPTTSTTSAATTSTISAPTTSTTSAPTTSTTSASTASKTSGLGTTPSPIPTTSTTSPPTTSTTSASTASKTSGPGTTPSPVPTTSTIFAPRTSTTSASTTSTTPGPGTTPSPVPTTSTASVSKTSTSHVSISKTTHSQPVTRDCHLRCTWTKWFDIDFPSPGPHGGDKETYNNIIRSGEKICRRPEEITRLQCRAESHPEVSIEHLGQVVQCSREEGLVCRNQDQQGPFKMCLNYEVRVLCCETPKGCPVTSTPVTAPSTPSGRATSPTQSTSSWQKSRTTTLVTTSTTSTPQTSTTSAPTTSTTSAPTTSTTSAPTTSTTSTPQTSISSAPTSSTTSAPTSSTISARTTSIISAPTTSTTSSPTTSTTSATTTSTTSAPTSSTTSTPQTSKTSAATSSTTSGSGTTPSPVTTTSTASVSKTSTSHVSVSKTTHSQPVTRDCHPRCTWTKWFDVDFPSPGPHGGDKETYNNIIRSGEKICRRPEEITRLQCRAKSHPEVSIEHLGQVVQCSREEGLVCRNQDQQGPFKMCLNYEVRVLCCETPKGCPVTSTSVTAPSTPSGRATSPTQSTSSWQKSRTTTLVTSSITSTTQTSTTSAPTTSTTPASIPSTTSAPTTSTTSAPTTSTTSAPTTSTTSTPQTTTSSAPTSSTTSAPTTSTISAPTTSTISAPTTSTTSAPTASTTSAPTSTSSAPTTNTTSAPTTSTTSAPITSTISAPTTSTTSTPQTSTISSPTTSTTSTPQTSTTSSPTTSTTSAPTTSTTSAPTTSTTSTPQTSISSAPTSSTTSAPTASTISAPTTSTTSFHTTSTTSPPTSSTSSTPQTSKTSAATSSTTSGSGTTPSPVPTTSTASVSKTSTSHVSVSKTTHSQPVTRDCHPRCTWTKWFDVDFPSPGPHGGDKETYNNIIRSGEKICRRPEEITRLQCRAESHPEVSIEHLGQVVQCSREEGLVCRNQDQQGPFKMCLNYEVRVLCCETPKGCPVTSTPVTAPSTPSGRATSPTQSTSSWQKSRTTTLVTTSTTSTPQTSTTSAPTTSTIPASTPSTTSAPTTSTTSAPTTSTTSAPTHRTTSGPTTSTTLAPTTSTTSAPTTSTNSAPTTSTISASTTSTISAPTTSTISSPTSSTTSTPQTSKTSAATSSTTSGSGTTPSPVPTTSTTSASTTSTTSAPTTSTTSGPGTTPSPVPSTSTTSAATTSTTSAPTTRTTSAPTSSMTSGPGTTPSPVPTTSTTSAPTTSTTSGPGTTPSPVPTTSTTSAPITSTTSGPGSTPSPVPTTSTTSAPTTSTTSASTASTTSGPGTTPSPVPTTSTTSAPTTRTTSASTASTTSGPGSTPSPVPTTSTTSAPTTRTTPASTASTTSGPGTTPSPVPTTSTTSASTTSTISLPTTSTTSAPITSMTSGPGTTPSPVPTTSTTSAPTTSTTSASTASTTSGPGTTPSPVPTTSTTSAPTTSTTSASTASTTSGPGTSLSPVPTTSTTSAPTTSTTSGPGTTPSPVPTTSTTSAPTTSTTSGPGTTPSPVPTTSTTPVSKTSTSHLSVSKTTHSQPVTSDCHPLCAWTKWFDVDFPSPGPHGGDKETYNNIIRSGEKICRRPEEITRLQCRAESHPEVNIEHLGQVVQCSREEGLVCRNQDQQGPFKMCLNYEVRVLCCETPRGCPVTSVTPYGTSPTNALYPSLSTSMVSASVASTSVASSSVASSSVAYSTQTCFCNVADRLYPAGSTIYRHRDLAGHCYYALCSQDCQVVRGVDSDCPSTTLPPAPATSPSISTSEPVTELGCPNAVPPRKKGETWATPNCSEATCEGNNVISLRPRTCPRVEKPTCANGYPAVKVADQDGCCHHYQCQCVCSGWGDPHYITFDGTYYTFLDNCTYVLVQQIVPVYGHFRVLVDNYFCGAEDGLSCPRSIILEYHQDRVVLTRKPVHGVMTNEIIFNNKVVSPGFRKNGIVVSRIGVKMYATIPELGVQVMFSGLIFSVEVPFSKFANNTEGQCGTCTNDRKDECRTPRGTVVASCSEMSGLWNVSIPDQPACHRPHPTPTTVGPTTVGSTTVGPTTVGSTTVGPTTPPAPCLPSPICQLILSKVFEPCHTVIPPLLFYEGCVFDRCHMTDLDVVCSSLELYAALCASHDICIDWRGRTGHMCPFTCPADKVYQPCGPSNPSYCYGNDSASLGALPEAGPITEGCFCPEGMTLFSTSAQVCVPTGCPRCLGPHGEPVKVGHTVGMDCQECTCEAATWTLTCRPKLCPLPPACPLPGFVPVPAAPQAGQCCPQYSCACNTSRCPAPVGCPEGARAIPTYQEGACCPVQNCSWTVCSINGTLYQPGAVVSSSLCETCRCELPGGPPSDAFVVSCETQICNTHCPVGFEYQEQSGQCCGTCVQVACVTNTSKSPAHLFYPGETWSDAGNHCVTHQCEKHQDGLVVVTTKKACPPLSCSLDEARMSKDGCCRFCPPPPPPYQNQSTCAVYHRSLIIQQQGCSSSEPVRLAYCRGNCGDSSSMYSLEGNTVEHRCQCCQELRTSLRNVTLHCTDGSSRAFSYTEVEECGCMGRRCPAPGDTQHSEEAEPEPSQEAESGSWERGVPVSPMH
UniProt Q8TAX7, residues 23-377: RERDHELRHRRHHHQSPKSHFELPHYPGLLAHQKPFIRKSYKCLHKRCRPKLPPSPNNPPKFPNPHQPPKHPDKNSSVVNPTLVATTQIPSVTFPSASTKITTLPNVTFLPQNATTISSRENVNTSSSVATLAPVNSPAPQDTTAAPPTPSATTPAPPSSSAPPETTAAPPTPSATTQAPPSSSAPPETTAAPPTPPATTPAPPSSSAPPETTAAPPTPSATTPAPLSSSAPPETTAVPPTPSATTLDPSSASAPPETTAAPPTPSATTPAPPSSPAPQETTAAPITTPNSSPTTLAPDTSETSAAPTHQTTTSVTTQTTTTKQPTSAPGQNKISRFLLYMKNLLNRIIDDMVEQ

Target: MUC5AC in the mucus layer on HT29-MTX cells (human (endogenous in HT29-MTX)) (UniProt P98088)
Experiment: incubation of saliva with cell layers, western blot of cell homogenates; 1 ml whole mouth saliva on HT29 or HT29-MTX cell layers (day 4, 8, 16), 20 minutes or 1 hour at 37°C, PBS wash, cells homogenised in RIPA buffer, immunoblot

binding: no binding
Substance: salivary MUC7 (from UniProt Q8TAX7 23-377)
